Laboratory results as given in PubChem BioAssay AID256 (DTP/NCI, 2004).
The list shows only some results of the screen, not a fair sample: it gathers tests that were run many times, whatever their T/C, doses with no T/C, and many T/C values between a quarter and a half above the control. Further doses and runs are listed elsewhere. T/C is the treated group as % of the vehicle group. Some doses have a count of surviving animals in place of a T/C: the source files T/C as zero there, which appears to mark a toxic dose or a test without result, not a measured value. Some survivor counts are full or nearly so, which does not show that the dose was tolerated: the source hardly ever lists a survival T/C far under the control, and the zero likely stands for such cases as well. Survivors were counted at the toxicity check, usually on the fifth day, unless a day is given; later deaths do not show. Schedule codes are those of the source, read here as Q, the interval in days (D) or hours (H), X, the number of doses. Some schedules carry Z or #; the key to these is not given. Some entries hold several experiments; the values are given in rising order. For survival time, the PubChem record calls one and a half times the control and up active, and a quarter to a half above the control has no call in these data; cut-offs in other NCI protocols can differ. Marks such as (2×) give the number of equal values in this list. Some T/C values are followed by the survivors on the day toxicity was checked, most often the fifth; without a count, all were alive then.

Test system: CD2F1 mice, L1210 leukemia ip, survival T/C
Test: NCI In Vivo Anticancer Drug Screen. Data for tumor model L1210 Leukemia (intraperitoneal) in CD2F1 (CDF1) mice
Conditions: higher T/C = longer survival
How it was run: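 Tumor-bearing mice (transplanted tumor) were split into treated and vehicle control groups, and the measured endpoint of each treated group was divided by that of its vehicle controls.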

[1] = T/C endpoint: mean survival time, dose: 400.0 mg/kg/injection, schedule: Q04DX003 (ip), vehicle: saline with Tween-80
[2] = T/C endpoint: mean survival time, dose: 300.0 mg/kg/injection, schedule: Q01DX001 (ip), vehicle: saline

Which results are given for CN1N=C(N)c2cn(C3OC(COP(=O)(O)O)C(O)C3O)c3ncnc1c23 (configuration not stated)?
T/C (T/C endpoint: mean survival time, dose: 6.25 mg/kg/injection, schedule: Q01DX009 (ip), vehicle: water): 125 % of control; T/C (T/C endpoint: mean survival time, dose: 7.81 mg/kg/injection, schedule: Q01DX009 (ip), vehicle: water): 126 and 132 % of control; T/C (T/C endpoint: mean survival time, dose: 10.0 mg/kg/injection, schedule: Q01DX005 (ip), vehicle: water): 147 % of control; T/C (T/C endpoint: mean survival time, dose: 11.73 mg/kg/injection, schedule: Q01DX009 (ip), vehicle: water): 132 % of control (2×); T/C (T/C endpoint: mean survival time, dose: 12.5 mg/kg/injection, schedule: Q01DX009 (ip), vehicle: water): 134 % of control; T/C (T/C endpoint: mean survival time, dose: 15.63 mg/kg/injection, schedule: Q01DX009 (ip), vehicle: water): 125 and 134 % of control; T/C (T/C endpoint: mean survival time, dose: 20.0 mg/kg/injection, schedule: Q01DX005 (ip), vehicle: water): 147 % of control; T/C (T/C endpoint: mean survival time, dose: 23.45 mg/kg/injection, schedule: Q01DX009 (ip), vehicle: water): 134 % of control; T/C (T/C endpoint: mean survival time, dose: 25.0 mg/kg/injection, schedule: Q01DX009 (ip), vehicle: water): 134 and 140 % of control; T/C (T/C endpoint: mean survival time, dose: 31.25 mg/kg/injection, schedule: Q01DX005 (iv), vehicle: water): 130 % of control; T/C (T/C endpoint: mean survival time, dose: 31.25 mg/kg/injection, schedule: Q01DX009 (ip), vehicle: water): 141 % of control; T/C (T/C endpoint: mean survival time, dose: 50.0 mg/kg/injection, schedule: Q01DX009 (ip), vehicle: water): 137 and 149 % of control [5 of 6 alive]; T/C (T/C endpoint: mean survival time, dose: 62.5 mg/kg/injection, schedule: Q01DX009 (ip), vehicle: water): 143 % of control; survivor count (T/C endpoint: mean survival time, dose: 160.0 mg/kg/injection, schedule: Q01DX005 (ip), vehicle: water): 0 of 8 and 2 of 8; survivor count (T/C endpoint: mean survival time, dose: 200.0 mg/kg/injection, schedule: Q01DX009 (ip), vehicle: water): 0 of 6; T/C (T/C endpoint: median survival time, dose: 6.25 mg/kg/injection, schedule: Q03HX008 (ip), vehicle: alkali diluted with water): 140 % of control [8 of 10 alive]; T/C (T/C endpoint: median survival time, dose: 12.5 mg/kg/injection, schedule: Q03HX008 (ip), vehicle: alkali diluted with water): 149 % of control [9 of 10 alive]; T/C (T/C endpoint: median survival time, dose: 24.0 mg/kg/injection, schedule: Q01DX005 (iv), vehicle: water): 142 % of control; survivor count (T/C endpoint: median survival time, dose: 25.0 mg/kg/injection, schedule: Q03HX008 (ip), vehicle: alkali diluted with water): 0 of 10; survivor count (T/C endpoint: median survival time, dose: 25.0 mg/kg/injection, schedule: Q03HX024 (ip), vehicle: alkali diluted with water): 0 of 10; T/C (T/C endpoint: median survival time, dose: 35.0 mg/kg/injection, schedule: Q01DX005 (ip), vehicle: water): 148 % of control; T/C (T/C endpoint: median survival time, dose: 35.0 mg/kg/injection, schedule: Q01DX005 (iv), vehicle: water): 148 % of control; survivor count (T/C endpoint: median survival time, dose: 50.0 mg/kg/injection, schedule: Q03HX008 (ip), vehicle: alkali diluted with water): 0 of 10; survivor count (T/C endpoint: median survival time, dose: 50.0 mg/kg/injection, schedule: Q03HX024 (ip), vehicle: alkali diluted with water): 0 of 10; T/C (T/C endpoint: median survival time, dose: 53.0 mg/kg/injection, schedule: Q01DX001 (iv), vehicle: water): 130 % of control; T/C (T/C endpoint: median survival time, dose: 53.0 mg/kg/injection, schedule: Q01DX005 (ip), vehicle: water): 147 % of control; T/C (T/C endpoint: median survival time, dose: 80.0 mg/kg/injection, schedule: Q01DX001 (ip), vehicle: water): 126 % of control; T/C (T/C endpoint: median survival time, dose: 80.0 mg/kg/injection, schedule: Q01DX001 (iv), vehicle: water): 130 % of control; survivor count (T/C endpoint: median survival time, dose: 100.0 mg/kg/injection, schedule: Q03HX008 (ip), vehicle: alkali diluted with water): 0 of 10; survivor count (T/C endpoint: median survival time, dose: 100.0 mg/kg/injection, schedule: Q03HX024 (ip), vehicle: alkali diluted with water): 0 of 10; T/C (T/C endpoint: median survival time, dose: 120.0 mg/kg/injection, schedule: Q01DX001 (ip), vehicle: water): 127 % of control; T/C (T/C endpoint: median survival time, dose: 120.0 mg/kg/injection, schedule: Q01DX001 (iv), vehicle: water): 136 % of control [9 of 10 alive]; survivor count (T/C endpoint: median survival time, dose: 120.0 mg/kg/injection, schedule: Q01DX005 (iv), vehicle: water): 2 of 10; survivor count (T/C endpoint: median survival time, dose: 180.0 mg/kg/injection, schedule: Q01DX001 (ip), vehicle: water): 5 of 10; survivor count (T/C endpoint: median survival time, dose: 180.0 mg/kg/injection, schedule: Q01DX001 (iv), vehicle: water): 1 of 10; survivor count (T/C endpoint: median survival time, dose: 180.0 mg/kg/injection, schedule: Q01DX005 (ip), vehicle: water): 3 of 10; survivor count (T/C endpoint: median survival time, dose: 180.0 mg/kg/injection, schedule: Q01DX005 (iv), vehicle: water): 0 of 10; survivor count (T/C endpoint: median survival time, dose: 180.0 mg/kg/injection, schedule: Q01DX009 (ip), vehicle: water): 1 of 10; T/C (T/C endpoint: median survival time, dose: 200.0 mg/kg/injection, schedule: Q01DX001 (ip), vehicle: alkali diluted with water): 130 % of control [9 of 10 alive]; survivor count (T/C endpoint: median survival time, dose: 200.0 mg/kg/injection, schedule: Q01DX009 (ip), vehicle: alkali diluted with water): 2 of 10; survivor count (T/C endpoint: median survival time, dose: 270.0 mg/kg/injection, schedule: Q01DX001 (ip), vehicle: water): 0 of 10; survivor count (T/C endpoint: median survival time, dose: 270.0 mg/kg/injection, schedule: Q01DX001 (iv), vehicle: water): 0 of 10; survivor count (T/C endpoint: median survival time, dose: 400.0 mg/kg/injection, schedule: Q01DX001 (ip), vehicle: alkali diluted with water): 4 of 10; survivor count (T/C endpoint: median survival time, dose: 400.0 mg/kg/injection, schedule: Q01DX009 (ip), vehicle: alkali diluted with water): 0 of 10; survivor count (T/C endpoint: median survival time, dose: 400.0 mg/kg/injection, schedule: Q04DX003 (ip), vehicle: alkali diluted with water): 4 of 10

Which survivor count (T/C endpoint: mean survival time, dose: 400.0 mg/kg/injection, schedule: Q01DX009 (ip), vehicle: Klucel (hydroxypropylcellulose) (HPC)) does the source give for O=C1NC(=O)C(=Cc2cc3c(cc2Br)OCO3)C(=O)N1 here?
Its survivor count is 0 of 6.

O=C(O)CNCNCC(=O)O was tested. Which survivor count (T/C endpoint: mean survival time, dose: 400.0 mg/kg/injection, schedule: Q04DX002 (ip), vehicle: saline) did it give?
Its survivor count is 1 of 3.

COc1cc(/C=N\NC(=O)CC#N)cc(OC)c1OC was tested. Which survivor count [1] did it give?
The survivor count was 2 of 6.

For CC(C)CCC(C(=O)O)C(=O)O, which survivor count [2] is on record?
The survivor count was 1 of 6.

How did the survivor count (T/C endpoint: mean survival time, dose: 5.0 mg/kg/injection, schedule: Q01DX001 (ip), vehicle: other) turn out when CCN1CCS/C1=C\C=C\C1=[N+](CC)CCS1 was run?
The survivor count was 1 of 6.

And the survivor count (T/C endpoint: mean survival time, dose: 75.0 mg/kg/injection, schedule: Q01DX001 (ip), vehicle: other)?
Its survivor count is 0 of 6.

And the survivor count (T/C endpoint: mean survival time, dose: 150.0 mg/kg/injection, schedule: Q01DX001 (ip), vehicle: other)?
Its survivor count is 0 of 6.

What about the survivor count (T/C endpoint: mean survival time, dose: 300.0 mg/kg/injection, schedule: Q01DX001 (ip), vehicle: other) of the same compound?
The survivor count was 0 of 6.

COc1ccc(C#N)c([N+](=O)[O-])c1 was tested. Which survivor count [1] did it give?
Its survivor count is 3 of 6.

CN(C)c1ccc(/C=C/c2ccnc3ccccc23)cc1 was tested. Which survivor count (T/C endpoint: mean survival time, dose: 100.0 mg/kg/injection, schedule: Q01DX Z (ip), vehicle: saline) did it give?
Its survivor count is 6 of 6.

O=C(O)C(NC1CCCCC1)c1ccccc1 (configuration not stated) was tested. Which survivor count [1] did it give?
The survivor count was 2 of 6.

How did the survivor count (T/C endpoint: mean survival time, dose: 150.0 mg/kg/injection, schedule: Q01DX001 (ip), vehicle: saline) turn out when CC(=O)C=C(C)[O][Tl] was run?
The survivor count was 0 of 6.

And the survivor count [2]?
Its survivor count is 0 of 6.

How did the survivor count (T/C endpoint: mean survival time, dose: 400.0 mg/kg/injection, schedule: Q01DX009 (ip), vehicle: saline with Tween-80) turn out when CC1=NN(c2ccccc2)C(=O)C1N=Nc1ccc([As](=O)(O)O)c(O)c1 (configuration not stated) was run?
The survivor count was 3 of 6.

How did the survivor count (T/C endpoint: mean survival time, dose: 1600.0 mg/kg/injection, schedule: Q01DX009 (ip), vehicle: steroid suspending solution) turn out when CC(=O)OC/C=C(C)/C=C/C=C(C)/C=C/C1=C(C)CCCC1(C)C was run?
The survivor count was 3 of 6.

How did the survivor count (T/C endpoint: mean survival time, dose: 200.0 mg/kg/injection, schedule: Q01DX009 (ip), vehicle: saline) turn out when Cc1cc(-c2ccc(N=Nc3c(N)ccc4cc(S(=O)(=O)O)ccc34)c(C)c2)ccc1N=Nc1c(N)ccc2cc(S(=O)(=O)O)ccc12 was run?
Its survivor count is 2 of 3.

Which results are given for C=Cc1cc(OC)c2c(c1)c(=O)oc1c2cc(OC)c2c(O)ccc(C3OC(C)C(O)C(C)(O)C3O)c21 (configuration not stated)?
T/C (T/C endpoint: median survival time, dose: 20.0 mg/kg/injection, schedule: Q01DX009 (ip), vehicle: other): 125 % of control; T/C (T/C endpoint: median survival time, dose: 40.0 mg/kg/injection, schedule: Q01DX009 (ip), vehicle: DMSO): 131 and 133 % of control; T/C (T/C endpoint: median survival time, dose: 40.0 mg/kg/injection, schedule: Q01DX009 (ip), vehicle: other): 142 % of control; T/C (T/C endpoint: median survival time, dose: 80.0 mg/kg/injection, schedule: Q01DX009 (ip), vehicle: DMSO): 144 % of control; T/C (T/C endpoint: median survival time, dose: 80.0 mg/kg/injection, schedule: Q01DX009 (ip), vehicle: other): 144 % of control

For S=c1[nH]nc2n1NC(c1ccoc1)=NN2, which survivor count [1] is on record?
The survivor count was 3 of 6.
